Patent US9487515B2, “Compounds modulating c-fms and/or c-kit activity and uses therefor” (Plexxikon Inc., priority 2006, dated 2016)
Some entries share one result that the patent states for a list of compounds.

molecular target: Fms (UniProt P07333); test: Fms assays of Examples 40 or 41 (AlphaScreen kinase assays at 10 and 100 μM ATP, 33P-ATP filter assay, RAW264.7 pFMS and M-NFS-60 M-CSF-stimulated proliferation); conditions: in at least one of the Fms assays described in Examples 40 or 41

IC50, < 1000 nM:
Cc1ccccc1CNc1ccc(Cc2c[nH]c3ncccc23)cn1 [P-0217, (2-Methyl-benzyl)-[5-(1H-pyrrolo[2,3-b]pyridin-3-ylmethyl)-pyridin-2-yl]-amine]
Cn1c(CNc2ccc(Cc3c[nH]c4ncccc34)cn2)nc2ccccc21 [P-0218, (1-Methyl-1H-benzoimidazol-2-ylmethyl)-[5-(1H-pyrrolo[2,3-b]pyridin-3-ylmethyl)-pyridin-2-yl]-amine]
COc1ccc(CNc2ccc(Cc3c[nH]c4ncccc34)cn2)cn1 [P-0219, (6-Methoxy-pyridin-3-ylmethyl)-[5-(1H-pyrrolo[2,3-b]pyridin-3-ylmethyl)-pyridin-2-yl]-amine]
c1ccc2[nH]c(CNc3ccc(Cc4c[nH]c5ncccc45)cn3)nc2c1 [P-0220, (1H-Benzoimidazol-2-ylmethyl)-[5-(1H-pyrrolo[2,3-b]pyridin-3-ylmethyl)-pyridin-2-yl]-amine]
Fc1ccc(CNc2ccc(Cc3c[nH]c4ncccc34)cn2)c(Cl)c1 [P-0221, (2-Chloro-4-fluoro-benzyl)-[5-(1H-pyrrolo[2,3-b]pyridin-3-ylmethyl)-pyridin-2-yl]-amine]
COc1cncc(CNc2ccc(Cc3c[nH]c4ncccc34)cn2)c1 [P-0222, (5-Methoxy-pyridin-3-ylmethyl)-[5-(1H-pyrrolo[2,3-b]pyridin-3-ylmethyl)-pyridin-2-yl]-amine]
Fc1cnccc1CNc1ccc(Cc2c[nH]c3ncccc23)cn1 [P-0223, (3-Fluoro-pyridin-4-ylmethyl)-[5-(1H-pyrrolo[2,3-b]pyridin-3-ylmethyl)-pyridin-2-yl]-amine]
COc1cccc(CNc2ccc(Cc3c[nH]c4ncccc34)cn2)n1 [P-0224, (6-Methoxy-pyridin-2-ylmethyl)-[5-(1H-pyrrolo[2,3-b]pyridin-3-ylmethyl)-pyridin-2-yl]-amine]
Fc1ccc(CNc2ccc(Cc3c[nH]c4ncccc34)cn2)c(C(F)(F)F)c1 [P-0225, (4-Fluoro-2-trifluoromethyl-benzyl)-[5-(1H-pyrrolo[2,3-b]pyridin-3-ylmethyl)-pyridin-2-yl]-amine]
FC(F)(F)c1ccccc1CNc1ccc(Cc2c[nH]c3ncccc23)cn1 [P-0226, [5-(1H-Pyrrolo[2,3-b]pyridin-3-ylmethyl)-pyridin-2-yl]-(2-trifluoromethyl-benzyl)-amine]
Clc1cncc(Cl)c1CNc1ccc(Cc2c[nH]c3ncccc23)cn1 [P-0227, (3,5-Dichloro-pyridin-4-ylmethyl)-[5-(1H-pyrrolo[2,3-b]pyridin-3-ylmethyl)-pyridin-2-yl]-amine]
c1cc(CNc2ccc(Cc3c[nH]c4ncccc34)cn2)nc(N2CCOCC2)c1 [P-0228, (6-Morpholin-4-yl-pyridin-2-ylmethyl)-[5-(1H-pyrrolo[2,3-b]pyridin-3-ylmethyl)-pyridin-2-yl]-amine]
Fc1cccnc1CNc1ccc(Cc2c[nH]c3ncccc23)cn1 [P-0229, (3-Fluoro-pyridin-2-ylmethyl)-[5-(1H-pyrrolo[2,3-b]pyridin-3-ylmethyl)-pyridin-2-yl]-amine]
Fc1cncc(CNc2ccc(Cc3c[nH]c4ncccc34)cn2)c1 [P-0230, (5-Fluoro-pyridin-3-ylmethyl)-[5-(1H-pyrrolo[2,3-b]pyridin-3-ylmethyl)-pyridin-2-yl]-amine]
Fc1cncc(CNc2nc(Cl)c(Cc3c[nH]c4ncc(Cl)cc34)s2)c1 [P-0231, [4-Chloro-5-(5-chloro-1H-pyrrolo[2,3-b]pyridin-3-ylmethyl)-thiazol-2-yl]-(5-fluoro-pyridin-3-ylmethyl)-amine]
N#Cc1cnc2[nH]cc(Cc3ccc(NCc4ccc(C(F)(F)F)nc4)nc3Cl)c2c1 [P-0232, 3-{2-Chloro-6-[(6-trifluoromethyl-pyridin-3-ylmethyl)-amino]-pyridin-3-ylmethyl}-1H-pyrrolo[2,3-b]pyridine-5-carbonitrile]
Cc1cnc2[nH]cc(Cc3ccc(NCc4ccc(C(F)(F)F)nc4)nc3Cl)c2c1 [P-0234, [6-Chloro-5-(5-methyl-1H-pyrrolo[2,3-b]pyridin-3-ylmethyl)-pyridin-2-yl]-(6-trifluoromethyl-pyridin-3-ylmethyl)-amine]
Clc1cnc2[nH]cc(Cc3ccc(NCc4ccncc4Cl)nc3)c2c1 [P-0235, (3-Chloro-pyridin-4-ylmethyl)-[5-(5-chloro-1H-pyrrolo[2,3-b]pyridin-3-ylmethyl)-pyridin-2-yl]-amine]
Clc1cnc2[nH]cc(Cc3sc(NCc4cccnc4)nc3Cl)c2c1 [P-0236, [4-Chloro-5-(5-chloro-1H-pyrrolo[2,3-b]pyridin-3-ylmethyl)-thiazol-2-yl]-pyridin-3-ylmethyl-amine]
Clc1cnc2[nH]cc(Cc3sc(NCc4ccncc4)nc3Cl)c2c1 [P-0237, [4-Chloro-5-(5-chloro-1H-pyrrolo[2,3-b]pyridin-3-ylmethyl)-thiazol-2-yl]-pyridin-4-ylmethyl-amine]
Clc1cnc2[nH]cc(Cc3sc(NCc4ccncc4Cl)nc3Cl)c2c1 [P-0238, [4-Chloro-5-(5-chloro-1H-pyrrolo[2,3-b]pyridin-3-ylmethyl)-thiazol-2-yl]-(3-chloro-pyridin-4-ylmethyl)-amine]
CCn1cc(CNc2nc(Cl)c(Cc3c[nH]c4ncc(Cl)cc34)s2)cn1 [P-0239, [4-Chloro-5-(5-chloro-1H-pyrrolo[2,3-b]pyridin-3-ylmethyl)-thiazol-2-yl]-(1-ethyl-1H-pyrazol-4-ylmethyl)-amine]
Fc1ccc(CNc2nc(Cl)c(Cc3c[nH]c4ncc(Cl)cc34)s2)nc1 [P-0240, [4-Chloro-5-(5-chloro-1H-pyrrolo[2,3-b]pyridin-3-ylmethyl)-thiazol-2-yl]-(5-fluoro-pyridin-2-ylmethyl)-amine]
COc1cncc(CNc2nc(Cl)c(Cc3c[nH]c4ncc(Cl)cc34)s2)c1 [P-0241, [4-Chloro-5-(5-chloro-1H-pyrrolo[2,3-b]pyridin-3-ylmethyl)-thiazol-2-yl]-(5-methoxy-pyridin-3-ylmethyl)-amine]
FC(F)(F)c1ccc(CNc2nc(Cl)c(Cc3c[nH]c4ncc(Cl)cc34)s2)cn1 [P-0242, [4-Chloro-5-(5-chloro-1H-pyrrolo[2,3-b]pyridin-3-ylmethyl)-thiazol-2-yl]-(6-trifluoromethyl-pyridin-3-ylmethyl)-amine]
Fc1cccc(Cl)c1CNc1nc(Cl)c(Cc2c[nH]c3ncc(Cl)cc23)s1 [P-0243, [4-Chloro-5-(5-chloro-1H-pyrrolo[2,3-b]pyridin-3-ylmethyl)-thiazol-2-yl]-(2-chloro-6-fluoro-benzyl)-amine]
Clc1cnc2[nH]cc(Cc3sc(NCCc4ccccc4)nc3Cl)c2c1 [P-0244, [4-Chloro-5-(5-chloro-1H-pyrrolo[2,3-b]pyridin-3-ylmethyl)-thiazol-2-yl]-phenethyl-amine]
Fc1ccc(CNc2nc(Cl)c(Cc3c[nH]c4ncc(Cl)cc34)s2)c(F)c1 [P-0245, [4-Chloro-5-(5-chloro-1H-pyrrolo[2,3-b]pyridin-3-ylmethyl)-thiazol-2-yl]-(2,4-difluoro-benzyl)-amine]
Fc1ccccc1CNc1nc(Cl)c(Cc2c[nH]c3ncc(Cl)cc23)s1 [P-0246, [4-Chloro-5-(5-chloro-1H-pyrrolo[2,3-b]pyridin-3-ylmethyl)-thiazol-2-yl]-(2-fluoro-benzyl)-amine]
COc1ncccc1CNc1nc(Cl)c(Cc2c[nH]c3ncc(Cl)cc23)s1 [P-0247, [4-Chloro-5-(5-chloro-1H-pyrrolo[2,3-b]pyridin-3-ylmethyl)-thiazol-2-yl]-(2-methoxy-pyridin-3-ylmethyl)-amine]
Clc1cnc2[nH]cc(Cc3sc(NCc4ccccc4Cl)nc3Cl)c2c1 [P-0248, (2-Chloro-benzyl)-[4-chloro-5-(5-chloro-1H-pyrrolo[2,3-b]pyridin-3-ylmethyl)-thiazol-2-yl]-amine]
Cc1ccccc1CNc1nc(Cl)c(Cc2c[nH]c3ncc(Cl)cc23)s1 [P-0249, [4-Chloro-5-(5-chloro-1H-pyrrolo[2,3-b]pyridin-3-ylmethyl)-thiazol-2-yl]-(2-methyl-benzyl)-amine]
Fc1ccc(CNc2nc(Cl)c(Cc3c[nH]c4ncc(Cl)cc34)s2)c(Cl)c1 [P-0250, [4-Chloro-5-(5-chloro-1H-pyrrolo[2,3-b]pyridin-3-ylmethyl)-thiazol-2-yl]-(2-chloro-4-fluoro-benzyl)-amine]
Fc1cccnc1CNc1nc(Cl)c(Cc2c[nH]c3ncc(Cl)cc23)s1 [P-0251, [4-Chloro-5-(5-chloro-1H-pyrrolo[2,3-b]pyridin-3-ylmethyl)-thiazol-2-yl]-(3-fluoro-pyridin-2-ylmethyl)-amine]
Clc1cnc2[nH]cc(Cc3sc(NCc4cccc(N5CCOCC5)n4)nc3Cl)c2c1 [P-0252, [4-Chloro-5-(5-chloro-1H-pyrrolo[2,3-b]pyridin-3-ylmethyl)-thiazol-2-yl]-(6-morpholin-4-yl-pyridin-2-ylmethyl)-amine]
Clc1cnc2[nH]cc(Cc3sc(NCc4c(Cl)cncc4Cl)nc3Cl)c2c1 [P-0253, [4-Chloro-5-(5-chloro-1H-pyrrolo[2,3-b]pyridin-3-ylmethyl)-thiazol-2-yl]-(3,5-dichloro-pyridin-4-ylmethyl)-amine]
FC(F)(F)c1ccccc1CNc1nc(Cl)c(Cc2c[nH]c3ncc(Cl)cc23)s1 [P-0254, [4-Chloro-5-(5-chloro-1H-pyrrolo[2,3-b]pyridin-3-ylmethyl)-thiazol-2-yl]-(2-trifluoromethyl-benzyl)-amine]
Cc1cccc(CNc2nc(Cl)c(Cc3c[nH]c4ncc(Cl)cc34)s2)n1 [P-0255, [4-Chloro-5-(5-chloro-1H-pyrrolo[2,3-b]pyridin-3-ylmethyl)-thiazol-2-yl]-(6-methyl-pyridin-2-ylmethyl)-amine]
